According to patent US6585996B1, “Lipid-soluble thiamine derivatives in the treatment of autism” (Westlake Laboratories, Inc., priority 2002, dated 2003):
Like-named read-outs stand apart in the source and are kept apart here.

Legend:
[1] = 10 patients
[2] = mean of 10 patients, end of the study; P value NS vs 1st
[3] = Pts 3: after two months of treatment, 50 mg TTFD twice a day, rectal suppository, N=10
[4] = Pts 2: one month after treatment start
[5] = Pts 3: after two months of treatment

## CC(=C(CCO)SSCC1CCCO1)N(C=O)Cc1cnc(C)nc1N (stereo in doubt) [TTFD, thiamine tetrahydrofurfuryl disulfide]
[3]
  Urinary arsenic, mean concentration: 52.1 ± 20.3 Mcg/g Creatinine
  Urinary cadmium, mean concentration: 0.42 ± 0.49 Mcg/g Creatinine
  Urinary lead, mean concentration: 3.3 ± 3.8 Mcg/g Creatinine
  Urinary mercury, mean concentration: 1.21 ± 1.24 Mcg/g Creatinine
After 1 month of treatment and at completion of the study
  Course of urinary arsenic during treatment: tended to increase followed by a decline
[1]; [4]
  Urinary total protein, mean: 72.3 ± 65.6
  Urinary total sulfate, mean: 7134.3 ± 4631
  Urinary total sulfite, mean: 47.2 ± 77.6
  Urinary total thiocyanate, mean: 24.9 ± 21.1
  Urinary total thiosulfate, mean: 25.8 ± 15.7
[1]; [5]
  Urinary total protein, mean: 62.2 ± 44.0
  Urinary total sulfate, mean: 5946.2 ± 4278
  Urinary total sulfite, mean: 16.9 ± 24.7
  Urinary total thiocyanate, mean: 29.3 ± 28.7
  Urinary total thiosulfate, mean: 25.6 ± 24.5
[2]
  Mean value for 2nd hair arsenic concentration: 2nd: 2.35 ± 0.91 NS PPM
